Test results taken from patent US20220356244A1.
These are yes or no findings as the source states them, for the method shown. Some results given as binding are weak or reduced against the parent protein; the word gives no strength.

Legend:
[1] = target: CLL subset 2 BCR (HC/LC typical for the CLL subset 2) on TKO cells; experiment: FACS on TKO cells carrying the desired BCR
[2] = target: CLL subset 2 BCR (HC/LC typical for the CLL subset 2) on TKO cells; experiment: FACS binding assay on TKO cells, anti-mouse IgG detection
[3] = target: CLL subset 2 BCR (HC/LC typical for the CLL subset 2) on TKO cells; experiment: FACS on TKO cells, with two blind samples

binding [1]: binds | binding [2]: binds | binding [3]: binds
B1: AVA-mAb01 (antibody, V domains shown)
VH: QVQLQQSGPGLVQPSQSLSITCTVSGFSLTSYGIHWVRQSPGKGLEWLGVIWRGGGTDSNAAFMSRLSITKDNSKSQVFFKMNSLQADDTAIYYCARSRYDEEESMNYWGQGTSVTVSS
VL: QIVLTQSPASLSASVGETVTITCRASGNIHSYLAWYQQKQGKSPQLLVYNAKTLADGVPSRFSGSGSGTQYSLKINSLQPEDFGSYYCQHFWNTPPTFGAGTKLELK
